From PMC8578705 (Cell Reports, 2021)

Experiments:
[1] = tested on: IP3Rs (wild-type HEK cells); assay: Ca2+ release from permeabilized wild-type HEK cells; assay type: cell-based, Homo sapiens
Experimental: Incubation of cells with the acetoxymethylester (AM) of Mag-fluo 4 traps low-affinity forms of the indicator ( KdCa = 1.15 mM measured in situ) within the ER. Fluorescence, which is approximately linearly related to ER free [Ca^2+] (since [Ca^2+]ER < KdCa ), can then be used, without further calibration, to reliably report free [Ca^2+] within the ER lumen ([Rossi and Taylor, 2020]). The ER of DT40 or HEK293 cells was loaded with indicator by incubating cells with Mag-fluo 4 AM (20 μM, 60 min, 22°C) in HEPES-buffered saline (HBS: 135 mM NaCl, 5.9 mM KCl, 11.6 mM HEPES, 1.5 mM CaCl2, 11.5 mM glucose, 1.2 mM MgCl2, pH 7.3) as described ([Rossi et al., 2009]). After washing and permeabilization with saponin (10 μg/mL, 37°C, 2-3 min) in Ca^2+-free cytosol-like medium (Ca^2+-free CLM), cells were centrifuged (650 × g, 2 min) and resuspended in Mg^2+-free CLM supplemented with CaCl2 to give a final free [Ca^2+] of 220 nM after addition of 1.5 mM MgATP. Ca^2+-free CLM comprised: 20 mM NaCl, 140 mM KCl, 1 mM EGTA, 20 mM PIPES, 2 mM MgCl2, pH 7.0. […]
For equilibrium binding and concentration-effect relationships, results from each experiment were fitted to Hill equations (PRISM) from which pIC50 (-log of half-maximal inhibitory concentration) or pEC50 (-log of half-maximally effective concentration) values were determined. KDligand was calculated from: KDligand = IC50ligand - [^3H-IP3] /KDIP3 . […]

IBC and NT of IP3R1 = assay: Difference in ligand affinities for the IBC and NT (ΔΔG); parameters: species or system rat; settings: difference in ΔG for binding to the IBC and NT

Structure (SMILES)	h (Hill coefficient) [1]	ΔΔG (ΔGIBC - ΔGNT) (IBC and NT of IP3R1) [kcal/mol]
O=C(NCCCN(CCCCN(CCCNC(=O)OCc1ccccc1)C(=O)OCc1ccccc1)C(=O)OCc1ccccc1)NCCO[C@@H]1[C@H](O)[C@@H](OP(=O)(O)O)[C@H](OP(=O)(O)O)[C@@H](O)[C@@H]1OP(=O)(O)O [Compound 2, 2-O-(1,5,10-tris(benzyloxycarbonyl)-15-oxo-1,5,10,14,16-pentaazaoctadecan-18-yl)-1D-myo-inositol 1,4,5-trisphosphate]	1.1 ± 0.3	-0.908
O=P(O)(O)O[C@@H]1[C@H](O)[C@H](O)[C@@H](OP(=O)(O)O)[C@H](OP(=O)(O)O)[C@H]1O [IP3, D-myo-inositol 1,4,5-trisphosphate]	1.0 ± 0.1	-1.24
